Results as given in publication PMC11519374.
No constants are given. Whether binding was seen depends on the method and setting. In cells and extracts the contact can be indirect. These calls come from enrichment with a bait or labelling near it, and not all partners need be listed.

Protein sequences, listed by entry. Tags and fused reporters are not part of them. Lines headed by an entry give the natural chain unless they say otherwise; changes in a name come on top.
UniProt Q9BST9: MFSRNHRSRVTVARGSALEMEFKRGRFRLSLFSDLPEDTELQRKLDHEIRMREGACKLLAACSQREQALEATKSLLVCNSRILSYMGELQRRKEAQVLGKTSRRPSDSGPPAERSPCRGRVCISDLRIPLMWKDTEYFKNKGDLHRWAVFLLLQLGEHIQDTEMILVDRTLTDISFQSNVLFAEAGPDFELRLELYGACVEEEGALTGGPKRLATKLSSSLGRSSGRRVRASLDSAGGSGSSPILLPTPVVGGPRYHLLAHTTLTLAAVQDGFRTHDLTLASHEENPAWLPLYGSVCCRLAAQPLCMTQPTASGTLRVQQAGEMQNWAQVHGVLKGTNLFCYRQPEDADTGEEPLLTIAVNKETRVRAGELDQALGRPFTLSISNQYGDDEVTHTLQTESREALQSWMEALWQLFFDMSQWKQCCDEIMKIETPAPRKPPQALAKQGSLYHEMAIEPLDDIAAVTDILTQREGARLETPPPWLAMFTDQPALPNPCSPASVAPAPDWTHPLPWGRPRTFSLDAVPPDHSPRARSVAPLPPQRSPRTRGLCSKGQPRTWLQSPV
UniProt P61586: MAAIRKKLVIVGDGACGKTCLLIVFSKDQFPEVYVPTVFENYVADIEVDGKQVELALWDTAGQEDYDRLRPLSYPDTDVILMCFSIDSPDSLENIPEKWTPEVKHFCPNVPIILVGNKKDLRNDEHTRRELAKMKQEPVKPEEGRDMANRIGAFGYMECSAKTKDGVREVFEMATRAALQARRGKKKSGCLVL

Molecular target: GST-rhotekin-Rho binding domain (UniProt Q9BST9)
Test: affinity purification with mass spectrometry; purified GST-RBD on beads incubated with lysates of control and TBC1D3C-expressing U2OS cells, 3 h at 4°C; bands of Rho GTPase size cut from Coomassie-stained SDS-PAGE; only the target purified

Question: How did the binding turn out when RhoA (from UniProt P61586 1-193) was run?
Answer: The binding was “binds”.
